This data set can be described thus: peptide synthesis. The conditions noted are these: conjugation step, one disulfide bridge, sequence written open.

Regarding GFCDGFYACYMDV-OH, the conjugation yield is on record as 7-10%.

For the origin of these results see patent US7998924B2 (The Trustees of The University of Pennsylvania, priority 2001, dated 2011).
